Converted amounts (≈) assume the structure as drawn.
Key:
Staphylococcus aureus = assay: Antimicrobial activity against Staphylococcus aureus ATCC 6538 by two-fold serial dilution assay; format: functional
Escherichia coli = assay: Antimicrobial activity against Escherichia coli NCTC 10418 by two-fold serial dilution assay; format: functional

SMILES: CC1(C)S[C@@H]2[C@H](NC(=O)[C@H](N)c3ccccc3)C(=O)N2[C@H]1C(=O)O [AMPICILLIN]
- MIC (Staphylococcus aureus): 3.9 µg/mL (≈ 11.2 µM)
- MIC (Escherichia coli): 7.81 µg/mL (≈ 22.4 µM)

Reference: ChEMBL document CHEMBL4184194, “An appraisal on synthetic and pharmaceutical perspectives of pyrazolo[4,3-d]pyrimidine scaffold” (Bioorg Med Chem, 2018)
